This is one part of the list. These are further read-outs of the screen, such as a control signal, another cell line or another target. No call is given for them. Most of these compounds were active or inconclusive in the main read-out, so they are no random draw. The note in brackets gives the kind of curve behind each potency; many fits are weak.
Assay: qHTS Assay for Modulators of Lamin A Splicing
Settings: HeLa LMNA splicing GFP/RFP minigene ratio, 48 h
How it was run: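 S3 HeLa cells stably expressing lamin A-EGFP splicing minigene plus DsRed2, 600 cells/well, 48 h compound exposure at 37C. Laser-scanning cytometry; analysed as GFP (500-530 nm)/RFP (575-640 nm) total intensity ratio; 0.5% DMSO vehicle.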

[1] = measured here: RFP viability control channel
[2] = measured here: GFP splicing reporter channel

Compound | AC50 [1] | AC50 [2]
O=C(/C=C/c1cccs1)c1cc(Br)ccc1OC(=O)N1CCOCC1 | 2.51 µM [falling, single point] | 
CC(C)n1cc(C(=O)c2ccccc2O)cc(C#N)c1=O |  | 0.00355 µM [rising, full curve, poor fit]
COc1ccccc1NC(=O)CC(c1ccc(OC(C)C)cc1)c1ccccc1OC (stereo unspecified) | 14.1 µM [rising, single point] | 
COc1ccc(S(=O)(=O)N(C)C)cc1NC(=O)CSc1nc(N)cc(N)n1 |  | 0.282 µM [falling, full curve, poor fit]
O=C(CN1CCN(c2cccc(C(F)(F)F)c2)CC1)Nc1cccc(C(F)(F)F)c1 | 35.5 µM [rising, single point] | 
COc1ccc(C(=O)NCc2ccc(Cl)c(Cl)c2)cc1OC | 17.8 µM [rising, single point] | 11.2 µM [rising, single point]
CCCCCn1c(=O)[nH]c2cc(C(=O)N3CCN(Cc4ccc5c(c4)OCO5)CC3)ccc2c1=O | 0.794 µM [rising, full curve] | 
O=C(c1ccccc1Nc1ccc(SC(F)F)cc1)N1CCCCCC1 | 17.8 µM [falling, single point] | 22.4 µM [falling, single point]
N#Cc1cccc(NC(=O)COc2ccc(-n3ccnc3)cc2)c1 | 35.5 µM [rising, single point] | 
Clc1ccc(CSc2nnc3c(n2)[nH]c2ccccc23)cc1 | 2.82 µM [falling, full curve, poor fit] | 3.16 µM [falling, full curve, poor fit]
O=C(CSc1nnc(-c2ccccc2O)o1)Oc1ccc(OCc2ccccc2)cc1 | 12.6 µM [rising, partial curve] | 14.1 µM [rising, single point]
Cc1cccc(Nc2nc(-c3ccncc3)cs2)c1 |  | 5.62 µM [falling, single point]
COc1cccc(-c2ccc3ncnc(N(C)C)c3c2)c1 | 12.6 µM [falling, partial curve] | 12.6 µM [falling, partial curve]
CC(C)Oc1cccc(C(=O)NC(=S)Nc2cccc(NC(=O)c3ccccc3Cl)c2)c1 | 17.8 µM [rising, single point] | 
CCOC(=O)N1CCN(c2ccc([N+](=O)[O-])cc2)CC1 | 20 µM [rising, single point] | 15.8 µM [rising, single point]
O=S(=O)(c1ccccc1)N1CCN(CC(O)COc2ccc3c(c2)CCC3)CC1 (stereo unspecified) | 12.6 µM [rising, single point] | 
CC(C)(C)C(=O)Nc1cc(S(=O)(=O)Nc2ccc(Cl)cc2)ccc1Cl | 15.8 µM [rising, partial curve] | 11.2 µM [rising, single point]
CCOC(=O)C(=Cc1cc(=O)c(OC)co1)C(=O)OCC | 22.4 µM [rising, single point] | 12.6 µM [rising, partial curve, poor fit]
CN(C)CCC(c1ccccc1)c1ccccn1 (stereo unspecified) | 0.0447 µM [falling, full curve] | 7.94 µM [falling, full curve, poor fit]
O=C(/C=C/c1ccc(Cl)cc1Cl)Nc1cccc(S(=O)(=O)NC2=NCCCCC2)c1 | 12.6 µM [rising, partial curve] | 10 µM [rising, partial curve]
Cc1ccc(S(=O)(=O)CC(C)N2CCOCC2)c(S(=O)(=O)CC(C)N2CCOCC2)c1 (stereo unspecified) | 20 µM [falling, partial curve, poor fit] | 
Cc1ccc(C)c(S(=O)(=O)N2CCCOC2CNC(=O)C(=O)NCCC2=CCCCC2)c1 (stereo unspecified) | 35.5 µM [rising, single point] | 25.1 µM [rising, single point]
C=C(C)CNC(=S)N1CCN(C(c2ccccc2)c2ccccc2)CC1 | 0.224 µM [falling, full curve, poor fit] | 0.355 µM [falling, full curve, poor fit]
NS(=O)(=O)c1ccc(NC(=O)c2cc(Cl)ccc2Cl)cc1 | 0.501 µM [rising, partial curve] | 
CCCN1C(=O)/C(=C2/C=Cc3ccccc3N2CC)SC1=S | 1 µM [rising, single point] | 0.708 µM [rising, partial curve, poor fit]
Cc1cc(C)c(O)c(N)c1 | 35.5 µM [rising, single point] | 
Cc1ccc(SCCCCN2CCNCC2)cc1 |  | 35.5 µM [rising, single point]

A second format for some results above.
N#Cc1cccc(NC(=O)COc2ccc(-n3ccnc3)cc2)c1
  AC50 [1]: 35.5 µM [rising, single point]
Clc1ccc(CSc2nnc3c(n2)[nH]c2ccccc23)cc1
  AC50 [1]: 2.82 µM [falling, full curve, poor fit]
  AC50 [2]: 3.16 µM [falling, full curve, poor fit]

More compounds follow.

Compound | AC50 [1] | AC50 [2]
Cc1[nH]c2ccccc2c1/C=N/NC(=O)C1CC1(c1ccccc1)c1ccccc1 (stereo unspecified) | 20 µM [rising, single point] | 12.6 µM [rising, single point]
COc1ccc(N2CCN(C(=O)c3oc4ccccc4c3C)CC2)cc1 | 0.0562 µM [rising, full curve, poor fit] | 0.794 µM [rising, single point]
CCOC(=O)c1[nH]c(C)c(C(=O)Nc2ccc(C)c(F)c2)c1C | 11.2 µM [rising, partial curve] | 
CC1=CCC(C(C)(C)O)CC1 (stereo unspecified) | 0.00355 µM [falling, full curve, poor fit] | 0.0562 µM [falling, full curve, poor fit]
CSc1nc(Cl)c(Cc2ccc(OC(C)C)cc2)c(N2CCOCC2)n1 |  | 11.2 µM [falling, single point]
COc1ccc(C(=O)/C=C\c2ccc(NC(=O)c3cccs3)cc2)cc1 | 12.6 µM [falling, partial curve] | 14.1 µM [falling, partial curve]
COc1ccc(NC(=O)C(C(C)C)N2Cc3ccccc3C2=O)cc1 (stereo unspecified) | 11.2 µM [rising, single point] | 
CCCCc1nn2c(=O)cc(COC(=O)c3ccccc3C)nc2s1 | 0.00501 µM [falling, full curve, poor fit] | 0.00447 µM [falling, full curve, poor fit]
O=C(CSc1nnnn1-c1ccc(Cl)cc1)Nc1cccnc1Cl | 22.4 µM [rising, single point] | 14.1 µM [rising, single point]
CC(=O)Nc1nc2c(s1)C(=O)NCCC2 |  | 1.58 µM [rising, partial curve]
COc1ccc(C(=O)C(C)Oc2cccc(NC(=O)c3cccc([N+](=O)[O-])c3)c2)cc1 (stereo unspecified) | 28.2 µM [rising, single point] | 20 µM [rising, single point]
CCOc1ccc(S(=O)(=O)NCc2ccc(OC)cc2)c2cccnc12 | 31.6 µM [rising, single point] | 25.1 µM [rising, single point]
CC(C)CCC[C@@H](C)[C@H]1CC[C@H]2[C@@H]3CC=C4C[C@@H](O)CC[C@]4(C)[C@H]3CC[C@]12C | 6.31 µM [falling, partial curve, poor fit] | 2.82 µM [falling, full curve]
Cc1cccc(N2CCN(C(=O)c3cc4ccc5cccnc5c4[nH]3)CC2C)c1 (stereo unspecified) | 0.224 µM [rising, partial curve, poor fit] | 
Cc1cccc(NS(=O)(=O)c2cc(C(=O)OC(C)C(=O)NCc3ccc4c(c3)OCO4)ccc2C)c1 (stereo unspecified) | 14.1 µM [rising, single point] | 
CCCCCCn1ccc(=N)cc1 | 7.08 µM [rising, full curve] | 8.91 µM [rising, partial curve]
Cc1ccc(NC(=O)C(NC2CCCc3ccccc32)c2ccccc2)cc1Cl (stereo unspecified) | 22.4 µM [rising, single point] | 
CCOc1ccc(-c2nc(C#N)c(N3CCCCCC3)o2)cc1 | 22.4 µM [rising, partial curve, poor fit] | 35.5 µM [rising, single point]
COc1ccc(CNC(=O)c2ccc(Cn3nc(C)c([N+](=O)[O-])c3C)o2)cc1 | 3.16 µM [falling, single point] | 5.62 µM [falling, single point]
CC(C)Oc1cc(NC(=O)CS(=O)CC(=O)Nc2cccc(C(F)(F)F)c2)c(Cl)cc1Cl (stereo unspecified) | 31.6 µM [falling, single point] | 35.5 µM [falling, single point]
Cc1ccccc1NC(=O)N1CCN(C/C=C/c2ccccc2)CC1 | 3.55 µM [rising, partial curve, poor fit] | 
O=C(/C=C/c1ccccc1)OCc1ccccc1 | 0.0355 µM [falling, full curve, poor fit] | 
COc1ccc(CC(=O)NCc2nn(-c3ccccc3)nc2C)cc1OC | 0.00398 µM [falling, full curve, poor fit] | 
CCc1ccccc1N(CC)C(=O)C1CCN(c2ncnc3c2nc2n3CCCCC2)CC1 | 35.5 µM [rising, partial curve] | 35.5 µM [rising, partial curve]
CCCCCCC(=O)N/N=C1\CCCc2ccccc21 | 35.5 µM [rising, single point] | 
O=C(CCC(=O)N1CCN(S(=O)(=O)c2ccc(Cl)cc2)CC1)Nc1ccc(Cl)cc1Cl | 11.2 µM [rising, single point] | 10 µM [rising, partial curve]

Reference: PubChem BioAssay AID1487 (National Center for Advancing Translational Sciences (NCATS), 2009)
